Data published in article doi:10.1101/2021.04.12.439405 (bioRxiv, 2021).
Substitutions are numbered along the chain they refer to. Results are given in words; binding and its absence hold for the method and conditions named.

What was measured:
[1] = target: T1, MukB^KRK (K1114E, R1122E and K1125E) (E. coli, UniProt P22523 1-1486, K1114E | R1122E | K1125E); assay: co-purification
T1 sequence (looked up): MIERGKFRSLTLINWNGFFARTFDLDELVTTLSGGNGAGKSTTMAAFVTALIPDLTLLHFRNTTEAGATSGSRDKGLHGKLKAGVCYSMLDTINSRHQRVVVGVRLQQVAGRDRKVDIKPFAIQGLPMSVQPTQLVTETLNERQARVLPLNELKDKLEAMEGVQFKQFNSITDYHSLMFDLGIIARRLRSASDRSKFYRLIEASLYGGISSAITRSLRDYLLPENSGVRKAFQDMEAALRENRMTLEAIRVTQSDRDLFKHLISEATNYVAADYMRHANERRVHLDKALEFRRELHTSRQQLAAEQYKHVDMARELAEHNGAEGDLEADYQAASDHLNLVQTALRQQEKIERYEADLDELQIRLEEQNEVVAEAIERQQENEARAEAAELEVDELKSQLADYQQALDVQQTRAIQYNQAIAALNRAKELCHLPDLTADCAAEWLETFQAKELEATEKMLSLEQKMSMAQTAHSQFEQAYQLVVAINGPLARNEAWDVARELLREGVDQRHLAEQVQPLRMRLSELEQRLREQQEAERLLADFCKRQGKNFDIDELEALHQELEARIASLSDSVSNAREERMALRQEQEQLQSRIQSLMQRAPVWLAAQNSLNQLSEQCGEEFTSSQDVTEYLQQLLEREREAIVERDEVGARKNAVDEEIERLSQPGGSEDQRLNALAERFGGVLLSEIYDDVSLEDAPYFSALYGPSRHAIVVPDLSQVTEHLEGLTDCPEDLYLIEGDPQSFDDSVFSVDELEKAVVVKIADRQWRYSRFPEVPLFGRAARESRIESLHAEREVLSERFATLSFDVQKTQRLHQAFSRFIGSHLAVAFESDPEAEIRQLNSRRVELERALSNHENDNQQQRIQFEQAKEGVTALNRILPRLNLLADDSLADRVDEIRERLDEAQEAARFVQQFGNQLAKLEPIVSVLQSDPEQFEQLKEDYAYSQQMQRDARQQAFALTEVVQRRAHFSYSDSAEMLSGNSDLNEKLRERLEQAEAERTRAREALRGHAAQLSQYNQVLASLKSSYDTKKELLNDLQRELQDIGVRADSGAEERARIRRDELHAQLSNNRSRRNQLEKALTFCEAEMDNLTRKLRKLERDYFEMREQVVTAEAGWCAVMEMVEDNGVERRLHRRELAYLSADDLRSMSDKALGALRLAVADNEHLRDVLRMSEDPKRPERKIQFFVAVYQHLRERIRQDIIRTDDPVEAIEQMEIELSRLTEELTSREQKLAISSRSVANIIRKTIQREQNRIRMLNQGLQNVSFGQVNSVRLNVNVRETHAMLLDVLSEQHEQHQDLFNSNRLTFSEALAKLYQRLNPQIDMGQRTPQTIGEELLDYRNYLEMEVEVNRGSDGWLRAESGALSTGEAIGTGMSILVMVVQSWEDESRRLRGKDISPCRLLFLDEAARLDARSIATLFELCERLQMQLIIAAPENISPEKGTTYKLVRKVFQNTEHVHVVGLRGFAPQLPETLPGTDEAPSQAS

[2] = target: T2, MukB^KK (K1114E and K1125E) (E. coli) (UniProt P22523); assay: co-purification
T2 sequence: T1 sequence (looked up) with E1122R

- binding [1]: no binding
- binding [2]: no binding
Substance: Acyl Carrier Protein (AcpP), co-purified with MukB proteins (from UniProt P0A6A8 1-78)
